In the supplement of paper PMC12819154, “High-throughput peptide-centric local stability assay extends protein–ligand identification to membrane proteins, tissues and bacteria” (Nature Structural & Molecular Biology, 2025) one finds log2 fold change data, which are given here for 37 targets.

Protein sequences, listed by entry. Tags and fused reporters are not part of them. Lines headed by an entry give the natural chain unless they say otherwise; changes in a name come on top.
UniProt Q9H4B6: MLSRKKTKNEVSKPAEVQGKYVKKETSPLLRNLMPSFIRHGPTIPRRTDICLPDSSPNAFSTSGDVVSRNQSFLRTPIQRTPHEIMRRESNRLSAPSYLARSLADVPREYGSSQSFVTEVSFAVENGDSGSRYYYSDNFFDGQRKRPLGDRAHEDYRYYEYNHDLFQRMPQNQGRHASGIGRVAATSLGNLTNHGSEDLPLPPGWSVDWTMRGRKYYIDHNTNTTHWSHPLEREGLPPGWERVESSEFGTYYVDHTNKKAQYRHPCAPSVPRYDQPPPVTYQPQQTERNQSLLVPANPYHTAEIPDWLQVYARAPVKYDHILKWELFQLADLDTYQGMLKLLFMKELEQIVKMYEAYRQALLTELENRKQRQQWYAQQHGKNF
UniProt Q9HBU6: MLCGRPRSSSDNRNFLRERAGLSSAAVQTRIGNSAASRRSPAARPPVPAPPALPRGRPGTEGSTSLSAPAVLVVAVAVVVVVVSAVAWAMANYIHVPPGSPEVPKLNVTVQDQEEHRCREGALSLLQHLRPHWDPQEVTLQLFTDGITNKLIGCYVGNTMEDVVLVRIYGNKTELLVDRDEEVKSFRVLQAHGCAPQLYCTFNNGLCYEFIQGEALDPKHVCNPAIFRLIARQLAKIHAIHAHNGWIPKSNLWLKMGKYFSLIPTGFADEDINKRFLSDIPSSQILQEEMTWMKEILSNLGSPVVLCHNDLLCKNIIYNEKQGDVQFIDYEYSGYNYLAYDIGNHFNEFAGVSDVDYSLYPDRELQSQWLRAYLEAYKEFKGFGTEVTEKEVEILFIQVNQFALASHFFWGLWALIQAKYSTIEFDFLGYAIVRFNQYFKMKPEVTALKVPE
UniProt Q9HCL3: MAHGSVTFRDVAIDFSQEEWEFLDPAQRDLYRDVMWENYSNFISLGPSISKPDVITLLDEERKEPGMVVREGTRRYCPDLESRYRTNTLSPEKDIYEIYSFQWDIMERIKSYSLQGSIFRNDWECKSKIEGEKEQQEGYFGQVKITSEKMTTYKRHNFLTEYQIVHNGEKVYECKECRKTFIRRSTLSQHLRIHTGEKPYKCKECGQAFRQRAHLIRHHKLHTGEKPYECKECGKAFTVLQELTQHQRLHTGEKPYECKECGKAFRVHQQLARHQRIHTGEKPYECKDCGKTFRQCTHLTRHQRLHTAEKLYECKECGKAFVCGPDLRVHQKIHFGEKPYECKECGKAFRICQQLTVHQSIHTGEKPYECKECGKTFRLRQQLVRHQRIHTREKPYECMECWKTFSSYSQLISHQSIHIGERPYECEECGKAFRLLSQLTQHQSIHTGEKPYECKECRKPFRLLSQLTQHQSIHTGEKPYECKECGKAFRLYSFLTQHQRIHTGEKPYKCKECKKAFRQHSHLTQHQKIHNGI
UniProt Q9H7Z6: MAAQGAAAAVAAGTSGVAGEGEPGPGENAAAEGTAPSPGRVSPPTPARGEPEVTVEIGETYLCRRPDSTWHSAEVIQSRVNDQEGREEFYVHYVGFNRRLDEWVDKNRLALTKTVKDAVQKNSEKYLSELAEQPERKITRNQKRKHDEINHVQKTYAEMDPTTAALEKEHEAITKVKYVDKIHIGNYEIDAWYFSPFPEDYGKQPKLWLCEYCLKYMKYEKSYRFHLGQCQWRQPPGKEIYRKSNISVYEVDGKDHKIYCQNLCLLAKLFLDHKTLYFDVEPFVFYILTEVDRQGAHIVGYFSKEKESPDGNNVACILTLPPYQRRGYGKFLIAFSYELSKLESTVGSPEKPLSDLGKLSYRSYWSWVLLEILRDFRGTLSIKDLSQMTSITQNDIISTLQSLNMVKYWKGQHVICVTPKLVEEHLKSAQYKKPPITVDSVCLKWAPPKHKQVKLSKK
UniProt Q9H792: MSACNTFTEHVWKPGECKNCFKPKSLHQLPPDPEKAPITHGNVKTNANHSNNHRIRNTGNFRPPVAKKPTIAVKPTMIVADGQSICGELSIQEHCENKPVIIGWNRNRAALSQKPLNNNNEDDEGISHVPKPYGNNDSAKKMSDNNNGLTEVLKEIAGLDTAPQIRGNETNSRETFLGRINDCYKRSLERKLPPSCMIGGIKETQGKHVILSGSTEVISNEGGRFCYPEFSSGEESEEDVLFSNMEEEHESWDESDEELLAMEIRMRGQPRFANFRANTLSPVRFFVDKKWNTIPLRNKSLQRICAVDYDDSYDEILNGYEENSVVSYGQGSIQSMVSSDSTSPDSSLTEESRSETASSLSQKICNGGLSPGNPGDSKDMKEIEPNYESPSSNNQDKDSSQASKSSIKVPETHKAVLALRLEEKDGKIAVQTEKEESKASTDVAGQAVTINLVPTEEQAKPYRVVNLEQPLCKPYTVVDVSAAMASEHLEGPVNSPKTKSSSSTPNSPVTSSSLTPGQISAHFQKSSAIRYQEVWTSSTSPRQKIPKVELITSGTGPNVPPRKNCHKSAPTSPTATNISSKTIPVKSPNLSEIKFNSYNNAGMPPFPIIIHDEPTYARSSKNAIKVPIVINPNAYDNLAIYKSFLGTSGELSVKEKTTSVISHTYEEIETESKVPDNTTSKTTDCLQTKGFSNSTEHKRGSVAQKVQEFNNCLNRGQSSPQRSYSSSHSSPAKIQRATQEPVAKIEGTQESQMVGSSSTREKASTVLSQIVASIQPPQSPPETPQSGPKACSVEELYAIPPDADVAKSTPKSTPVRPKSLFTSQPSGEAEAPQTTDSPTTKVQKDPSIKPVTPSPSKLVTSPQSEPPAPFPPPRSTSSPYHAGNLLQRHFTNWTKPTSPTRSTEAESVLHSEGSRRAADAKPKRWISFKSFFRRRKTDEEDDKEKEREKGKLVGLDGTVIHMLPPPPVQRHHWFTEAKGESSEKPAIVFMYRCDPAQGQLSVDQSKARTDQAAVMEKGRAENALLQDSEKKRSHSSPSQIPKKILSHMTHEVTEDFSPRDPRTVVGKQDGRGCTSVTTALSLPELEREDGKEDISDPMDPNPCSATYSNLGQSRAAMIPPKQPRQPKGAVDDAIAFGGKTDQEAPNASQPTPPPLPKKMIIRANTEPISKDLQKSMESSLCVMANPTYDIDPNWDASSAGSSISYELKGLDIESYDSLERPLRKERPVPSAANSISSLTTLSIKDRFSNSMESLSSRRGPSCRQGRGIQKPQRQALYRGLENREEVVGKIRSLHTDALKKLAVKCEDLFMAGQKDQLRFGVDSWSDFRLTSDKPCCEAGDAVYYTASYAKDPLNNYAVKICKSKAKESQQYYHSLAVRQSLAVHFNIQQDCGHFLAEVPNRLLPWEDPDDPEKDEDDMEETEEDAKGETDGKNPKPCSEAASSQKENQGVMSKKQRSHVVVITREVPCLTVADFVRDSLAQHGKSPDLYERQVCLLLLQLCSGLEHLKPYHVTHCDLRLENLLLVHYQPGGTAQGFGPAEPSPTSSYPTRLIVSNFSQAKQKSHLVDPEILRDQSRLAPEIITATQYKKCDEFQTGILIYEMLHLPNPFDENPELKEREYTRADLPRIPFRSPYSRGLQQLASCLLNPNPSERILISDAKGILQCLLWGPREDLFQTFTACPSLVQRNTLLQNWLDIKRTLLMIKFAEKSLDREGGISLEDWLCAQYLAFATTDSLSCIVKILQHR
UniProt Q9HCG8: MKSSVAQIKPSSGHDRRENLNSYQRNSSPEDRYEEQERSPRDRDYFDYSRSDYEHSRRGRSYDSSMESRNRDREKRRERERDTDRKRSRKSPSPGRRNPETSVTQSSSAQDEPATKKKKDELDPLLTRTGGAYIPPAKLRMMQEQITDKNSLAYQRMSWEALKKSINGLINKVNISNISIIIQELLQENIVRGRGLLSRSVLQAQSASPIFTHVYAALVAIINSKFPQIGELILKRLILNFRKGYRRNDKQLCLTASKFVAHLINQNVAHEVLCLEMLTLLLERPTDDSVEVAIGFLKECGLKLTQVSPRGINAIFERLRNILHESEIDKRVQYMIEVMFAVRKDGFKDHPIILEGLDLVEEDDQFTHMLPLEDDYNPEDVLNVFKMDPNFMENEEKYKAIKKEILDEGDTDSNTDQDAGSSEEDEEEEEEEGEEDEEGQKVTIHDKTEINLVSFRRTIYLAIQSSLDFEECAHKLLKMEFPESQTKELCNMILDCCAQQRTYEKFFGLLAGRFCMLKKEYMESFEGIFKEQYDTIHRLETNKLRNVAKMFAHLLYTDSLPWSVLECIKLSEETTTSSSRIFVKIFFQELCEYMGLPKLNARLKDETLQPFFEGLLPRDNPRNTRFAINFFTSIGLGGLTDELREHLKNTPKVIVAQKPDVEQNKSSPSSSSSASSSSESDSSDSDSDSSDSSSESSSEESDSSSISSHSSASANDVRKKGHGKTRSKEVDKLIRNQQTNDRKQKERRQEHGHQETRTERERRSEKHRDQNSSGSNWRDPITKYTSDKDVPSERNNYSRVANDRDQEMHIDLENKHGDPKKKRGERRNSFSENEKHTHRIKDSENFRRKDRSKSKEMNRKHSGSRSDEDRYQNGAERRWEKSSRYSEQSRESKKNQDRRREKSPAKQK
UniProt Q9HCH0: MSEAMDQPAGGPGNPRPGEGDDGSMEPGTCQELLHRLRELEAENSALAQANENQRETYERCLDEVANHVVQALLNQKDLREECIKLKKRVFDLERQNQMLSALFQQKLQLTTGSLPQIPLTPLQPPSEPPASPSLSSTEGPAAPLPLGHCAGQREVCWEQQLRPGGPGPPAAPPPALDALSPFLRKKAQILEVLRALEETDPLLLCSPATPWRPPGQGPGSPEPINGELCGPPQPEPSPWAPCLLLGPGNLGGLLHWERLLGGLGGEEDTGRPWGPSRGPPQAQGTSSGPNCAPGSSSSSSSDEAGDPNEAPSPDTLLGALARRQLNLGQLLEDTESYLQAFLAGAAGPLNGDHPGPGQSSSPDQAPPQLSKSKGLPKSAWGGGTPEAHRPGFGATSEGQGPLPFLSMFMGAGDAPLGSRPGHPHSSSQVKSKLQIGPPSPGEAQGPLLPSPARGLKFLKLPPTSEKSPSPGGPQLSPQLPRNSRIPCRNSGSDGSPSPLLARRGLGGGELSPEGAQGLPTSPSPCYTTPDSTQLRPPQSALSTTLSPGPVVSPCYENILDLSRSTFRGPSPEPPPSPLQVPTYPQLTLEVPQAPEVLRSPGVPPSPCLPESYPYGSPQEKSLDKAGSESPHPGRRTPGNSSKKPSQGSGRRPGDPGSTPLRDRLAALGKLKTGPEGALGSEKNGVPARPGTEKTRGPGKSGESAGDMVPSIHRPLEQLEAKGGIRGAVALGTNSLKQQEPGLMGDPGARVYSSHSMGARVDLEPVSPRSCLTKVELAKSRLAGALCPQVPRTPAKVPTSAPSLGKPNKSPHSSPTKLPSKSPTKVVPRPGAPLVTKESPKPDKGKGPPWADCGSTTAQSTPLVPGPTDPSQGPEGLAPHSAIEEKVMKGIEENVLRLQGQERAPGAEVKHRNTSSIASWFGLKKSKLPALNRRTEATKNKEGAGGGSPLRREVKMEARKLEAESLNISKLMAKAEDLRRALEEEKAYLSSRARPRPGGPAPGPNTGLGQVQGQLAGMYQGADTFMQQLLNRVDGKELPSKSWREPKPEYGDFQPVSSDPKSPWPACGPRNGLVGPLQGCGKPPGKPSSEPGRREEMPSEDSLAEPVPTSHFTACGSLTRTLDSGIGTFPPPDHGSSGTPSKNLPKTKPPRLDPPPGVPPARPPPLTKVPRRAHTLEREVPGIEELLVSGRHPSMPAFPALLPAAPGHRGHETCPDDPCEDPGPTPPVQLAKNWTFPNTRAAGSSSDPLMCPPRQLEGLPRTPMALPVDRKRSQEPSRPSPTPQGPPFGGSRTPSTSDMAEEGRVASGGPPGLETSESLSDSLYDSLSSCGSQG
UniProt Q9H7Z7: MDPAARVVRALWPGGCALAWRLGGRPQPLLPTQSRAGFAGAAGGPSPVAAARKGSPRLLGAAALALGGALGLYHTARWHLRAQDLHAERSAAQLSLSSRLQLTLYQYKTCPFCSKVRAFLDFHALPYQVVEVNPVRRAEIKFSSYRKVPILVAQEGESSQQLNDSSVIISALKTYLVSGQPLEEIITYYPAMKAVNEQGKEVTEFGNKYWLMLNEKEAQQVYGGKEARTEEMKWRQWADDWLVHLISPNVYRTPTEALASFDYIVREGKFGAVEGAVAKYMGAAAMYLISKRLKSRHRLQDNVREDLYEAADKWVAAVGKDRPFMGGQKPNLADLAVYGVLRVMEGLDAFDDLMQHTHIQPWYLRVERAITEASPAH
UniProt Q9H6Y2: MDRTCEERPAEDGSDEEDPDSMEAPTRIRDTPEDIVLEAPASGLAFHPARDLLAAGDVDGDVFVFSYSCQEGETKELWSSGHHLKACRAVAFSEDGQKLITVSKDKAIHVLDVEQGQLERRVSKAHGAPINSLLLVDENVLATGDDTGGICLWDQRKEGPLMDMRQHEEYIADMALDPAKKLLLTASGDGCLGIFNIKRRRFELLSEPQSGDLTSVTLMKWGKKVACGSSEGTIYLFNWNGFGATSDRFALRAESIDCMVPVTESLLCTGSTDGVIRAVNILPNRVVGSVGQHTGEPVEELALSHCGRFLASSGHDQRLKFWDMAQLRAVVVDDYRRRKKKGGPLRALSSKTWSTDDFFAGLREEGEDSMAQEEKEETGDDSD

This is one part of the list. Most values lie at the level of the controls, where differences are scatter.

Compound in this experiment: CN[C@@H]1C[C@H]2O[C@@](C)([C@@H]1OC)n1c3ccccc3c3c4c(c5c6ccccc6n2c5c31)C(=O)NC4 [staurosporine]
Description: log2 fold change of tryptic peptide abundance, ligand vs vehicle (limited proteolysis) (log2 ratio); higher = more trypsin-susceptible (destabilized). The settings on record: ligand concentration: 20 uM; sample: K562 cleared lysate; digestion: 4 min, 22 C (HT-PELSA RT4min, Orbitrap Astral).
In the case of “UniProt Q9H8G1 (peptide sequence: YLECDKAFSQSSTLTK, peptide start residue: 515)”, the log2 fold change was -0.305. The value for “UniProt Q9H7H0 (peptide sequence: FSMVILAR, peptide start residue: 369)” was 0.71; that for “ACTL8 (peptide sequence: ENPGPSYAR, peptide start residue: 40) (UniProt Q9H568)” was -0.152. Take “RPF1 (peptide sequence: VGIQELGPR, peptide start residue: 303) (UniProt Q9H9Y2)”: the log2 fold change turned out to be 0.334. Next, “CCSER2 (peptide sequence: HTSGNNLVSPDTDYR, peptide start residue: 480) (UniProt Q9H7U1)”: 0.495; “SAV1 (peptide sequence: VESSEFGTYYVDHTNKK, peptide start residue: 243) (UniProt Q9H4B6)”: -0.472; “SMYD3 (peptide sequence: AVTPLRPGELLFR, peptide start residue: 20) (UniProt Q9H7B4)”: 0.258. Next, “UniProt Q9HAH7 (peptide sequence: TPGSDKERPVER, peptide start residue: 246)”: 0.235; “ETNK1 (peptide sequence: LIGCYVGNTMEDVVLVR, peptide start residue: 151) (UniProt Q9HBU6)”: -0.354; “UniProt Q9HCL3 (peptide sequence: IHTGEKPYECK, peptide start residue: 411)”: -0.00813. Next, “CARS2 (peptide sequence: QPLLEACDTLR, peptide start residue: 520) (UniProt Q9HA77)”: -0.35; “UniProt Q9H7M9 (peptide sequence: VRHPLSYVAQR, peptide start residue: 259)”: 0.0543. As for “YY1AP1 (peptide sequence: LKPVADRFPK, peptide start residue: 438) (UniProt Q9H869)”, the log2 fold change was -0.301. The value for “UniProt Q9HCM1 (peptide sequence: HLSMEVPQSR, peptide start residue: 300)” was 0.941. The value for “UniProt Q9NPL8 (peptide sequence: YSGETVQER, peptide start residue: 212)” was -0.35; that for “ZHX3 (peptide sequence: QSWHQTPDFTPTK, peptide start residue: 603) (UniProt Q9H4I2)” was 0.358. Consider “HINT3 (peptide sequence: VNSYWFITADHLIEKLRT, peptide start residue: 165) (UniProt Q9NQE9)”, for which the log2 fold change is 0.749.

As to “COG4 (peptide sequence: YLCLDKSVIELSR, peptide start residue: 161) (UniProt Q9H9E3)”, the log2 fold change was determined as 0.425. Next, “UniProt Q9H7Z6 (peptide sequence: LVEEHLK, peptide start residue: 421)”: 0.289.

In the case of “PEAK1 (peptide sequence: GAVDDAIAFGGK, peptide start residue: 1128) (UniProt Q9H792)”, the log2 fold change was 0.379.

As to “UniProt Q9H871 (peptide sequence: KCWYHSIFACPILR, peptide start residue: 327)”, the log2 fold change is -0.473. Next, “UniProt Q9HCE5 (peptide sequence: ETCRASYDTSAPNAK, peptide start residue: 49)”: -0.613; “RRAGC (peptide sequence: SCGHQTSASSLK, peptide start residue: 376) (UniProt Q9HB90)”: 0.18; “NHEJ1 (peptide sequence: ESTGTSGPLQRPQLSK, peptide start residue: 273) (UniProt Q9H9Q4)”: 0.051.

Regarding “THAP9 (peptide sequence: DLALWTVQR, peptide start residue: 668) (UniProt Q9H5L6)”, the log2 fold change was -0.656. Next, “UniProt Q9HCK0 (peptide sequence: LAQAVLNLR, peptide start residue: 426)”: -0.0432; “UniProt Q9H5X1 (peptide sequence: HKLEIYISEGTHSTEEDINK, peptide start residue: 112)”: -0.333; “CWC22 (peptide sequence: LKDETLQPFFEGLLPR, peptide start residue: 603) (UniProt Q9HCG8)”: 0.312.

In the case of “UniProt Q9HAU4 (peptide sequence: THLHTPPDLPEGYEQR, peptide start residue: 245)”, the log2 fold change is -0.272. The value for “UniProt Q9HCH0 (peptide sequence: RPGDPGSTPLR, peptide start residue: 652)” was 0.452; that for “CHMP1A (peptide sequence: VYAENAIR, peptide start residue: 47) (UniProt Q9HD42)” was -0.0901; that for “PTGES2 (peptide sequence: AFLDFHALPYQVVEVNPVRR, peptide start residue: 118) (UniProt Q9H7Z7)” was -0.198. The value for “UniProt Q9H974 (peptide sequence: SVSVWSVAGR, peptide start residue: 112)” was -0.626; that for “UniProt Q9H611 (peptide sequence: LAAAPGPGPASAR, peptide start residue: 124)” was -0.0232. The value for “CACYBP (peptide sequence: KIYEDGDDDMKR, peptide start residue: 197) (UniProt Q9HB71)” was -0.115. For the target “METTL8 (peptide sequence: MHCPTVPDEK, peptide start residue: 144) (UniProt Q9H825)”, the log2 fold change stood at 0.437. The value for “WDR55 (peptide sequence: ELWSSGHHLK, peptide start residue: 76) (UniProt Q9H6Y2)” was 0.48.
